Experimental data as given in US6897294.
Results are given in words; binding and its absence hold for the method and conditions named. Some entries that bind do so weakly or less than the wild type.

Protein sequences, listed by entry. Tags and fused reporters are not part of them. Lines headed by an entry give the natural chain unless they say otherwise; changes in a name come on top. Chains listed by the source or under a name are the forms on record and can include a tag or linker.
UniProt P35916: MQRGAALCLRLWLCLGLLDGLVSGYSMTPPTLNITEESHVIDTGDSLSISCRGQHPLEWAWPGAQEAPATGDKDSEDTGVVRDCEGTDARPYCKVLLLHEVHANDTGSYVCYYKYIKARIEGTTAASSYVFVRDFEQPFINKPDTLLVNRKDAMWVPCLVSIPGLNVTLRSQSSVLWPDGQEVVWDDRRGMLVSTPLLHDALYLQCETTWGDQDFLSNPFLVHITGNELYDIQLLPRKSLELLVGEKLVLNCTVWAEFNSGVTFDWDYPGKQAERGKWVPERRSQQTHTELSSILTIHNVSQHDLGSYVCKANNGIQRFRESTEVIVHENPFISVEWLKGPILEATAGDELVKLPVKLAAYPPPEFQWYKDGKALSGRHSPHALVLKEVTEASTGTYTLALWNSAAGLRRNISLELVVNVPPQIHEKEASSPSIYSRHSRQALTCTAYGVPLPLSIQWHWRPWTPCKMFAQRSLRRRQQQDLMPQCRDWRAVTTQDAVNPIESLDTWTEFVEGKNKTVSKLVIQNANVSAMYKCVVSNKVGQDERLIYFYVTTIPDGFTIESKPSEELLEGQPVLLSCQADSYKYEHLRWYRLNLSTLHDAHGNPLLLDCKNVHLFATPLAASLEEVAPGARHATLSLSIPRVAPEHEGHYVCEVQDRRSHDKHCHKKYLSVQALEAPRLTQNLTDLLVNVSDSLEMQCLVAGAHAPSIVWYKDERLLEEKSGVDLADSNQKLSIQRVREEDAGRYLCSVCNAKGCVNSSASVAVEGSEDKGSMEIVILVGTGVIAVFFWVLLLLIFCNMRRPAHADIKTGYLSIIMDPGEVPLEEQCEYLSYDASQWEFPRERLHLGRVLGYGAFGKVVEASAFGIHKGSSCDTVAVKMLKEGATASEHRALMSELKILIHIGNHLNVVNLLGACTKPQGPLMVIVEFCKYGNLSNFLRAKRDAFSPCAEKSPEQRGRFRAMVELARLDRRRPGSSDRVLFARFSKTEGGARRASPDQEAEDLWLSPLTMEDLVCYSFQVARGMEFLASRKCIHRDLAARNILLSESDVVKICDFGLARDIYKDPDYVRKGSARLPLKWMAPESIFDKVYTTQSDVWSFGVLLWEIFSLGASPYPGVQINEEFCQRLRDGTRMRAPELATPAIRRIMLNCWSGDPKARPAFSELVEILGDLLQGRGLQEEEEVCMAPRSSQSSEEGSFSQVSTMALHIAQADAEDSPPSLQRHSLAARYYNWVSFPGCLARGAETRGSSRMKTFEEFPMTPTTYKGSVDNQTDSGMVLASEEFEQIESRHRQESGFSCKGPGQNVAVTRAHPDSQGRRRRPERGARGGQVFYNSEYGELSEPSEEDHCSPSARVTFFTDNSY
vascular endothelial growth factor VEGF165 (P15692, form named): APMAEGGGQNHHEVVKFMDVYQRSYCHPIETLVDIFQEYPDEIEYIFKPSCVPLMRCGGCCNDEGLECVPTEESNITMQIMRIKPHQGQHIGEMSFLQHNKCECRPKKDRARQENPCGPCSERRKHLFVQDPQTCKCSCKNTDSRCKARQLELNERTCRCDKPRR

How the values were obtained:
[1] = target: flt-1(2)/FLT4 chimeric receptor (human) (UniProt P35916); experiment: saturation binding of 125I-VEGF to transiently transfected 293 cells
[2] = target: flt-1(1, 2, 3)/FLT4 chimeric receptor (human); experiment: as above

binding [1]: binds
binding [2]: binds
Substance: vascular endothelial growth factor VEGF165 (from UniProt P15692 27-191) (ligand)
